Article doi:10.1101/2025.07.14.664640
No constants are given. Whether binding was seen depends on the method and setting. Binding seen in cells or lysates may run through a third protein. Some results given as binding are weak or reduced against the parent protein; the word gives no strength. Tags and fused reporters may be left off the sequences shown.

T1: TKS5-EGFP (UniProt Q5TCZ1)
T1 sequence: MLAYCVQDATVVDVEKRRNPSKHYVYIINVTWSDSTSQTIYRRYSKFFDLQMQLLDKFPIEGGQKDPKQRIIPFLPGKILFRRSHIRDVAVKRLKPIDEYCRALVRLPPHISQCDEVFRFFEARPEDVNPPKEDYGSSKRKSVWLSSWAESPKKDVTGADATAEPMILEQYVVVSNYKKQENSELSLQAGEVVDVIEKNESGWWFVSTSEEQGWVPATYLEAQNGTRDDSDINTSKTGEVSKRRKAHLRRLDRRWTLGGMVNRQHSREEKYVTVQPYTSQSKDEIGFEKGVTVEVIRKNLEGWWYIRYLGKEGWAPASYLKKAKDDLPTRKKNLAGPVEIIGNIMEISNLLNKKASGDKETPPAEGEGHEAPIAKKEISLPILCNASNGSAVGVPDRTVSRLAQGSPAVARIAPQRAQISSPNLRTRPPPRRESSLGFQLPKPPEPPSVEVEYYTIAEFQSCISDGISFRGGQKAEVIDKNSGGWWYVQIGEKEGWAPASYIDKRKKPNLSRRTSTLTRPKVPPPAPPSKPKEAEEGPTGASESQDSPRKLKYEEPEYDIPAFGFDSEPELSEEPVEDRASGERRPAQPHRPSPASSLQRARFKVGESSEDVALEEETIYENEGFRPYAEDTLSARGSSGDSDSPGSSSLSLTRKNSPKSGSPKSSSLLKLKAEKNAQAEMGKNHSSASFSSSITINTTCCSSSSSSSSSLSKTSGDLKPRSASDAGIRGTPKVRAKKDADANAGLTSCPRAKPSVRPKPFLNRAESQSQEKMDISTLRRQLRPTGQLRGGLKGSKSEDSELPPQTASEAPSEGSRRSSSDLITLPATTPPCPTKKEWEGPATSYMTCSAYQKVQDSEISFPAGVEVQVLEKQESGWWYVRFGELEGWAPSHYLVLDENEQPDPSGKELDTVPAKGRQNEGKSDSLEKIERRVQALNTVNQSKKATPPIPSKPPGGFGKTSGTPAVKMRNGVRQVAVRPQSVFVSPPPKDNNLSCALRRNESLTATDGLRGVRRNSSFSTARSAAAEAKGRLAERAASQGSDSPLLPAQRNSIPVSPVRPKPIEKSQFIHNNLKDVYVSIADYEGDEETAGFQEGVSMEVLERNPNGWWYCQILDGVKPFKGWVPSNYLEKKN

T2: TKS5-EGFP, Q5TCZ1
T2 chain: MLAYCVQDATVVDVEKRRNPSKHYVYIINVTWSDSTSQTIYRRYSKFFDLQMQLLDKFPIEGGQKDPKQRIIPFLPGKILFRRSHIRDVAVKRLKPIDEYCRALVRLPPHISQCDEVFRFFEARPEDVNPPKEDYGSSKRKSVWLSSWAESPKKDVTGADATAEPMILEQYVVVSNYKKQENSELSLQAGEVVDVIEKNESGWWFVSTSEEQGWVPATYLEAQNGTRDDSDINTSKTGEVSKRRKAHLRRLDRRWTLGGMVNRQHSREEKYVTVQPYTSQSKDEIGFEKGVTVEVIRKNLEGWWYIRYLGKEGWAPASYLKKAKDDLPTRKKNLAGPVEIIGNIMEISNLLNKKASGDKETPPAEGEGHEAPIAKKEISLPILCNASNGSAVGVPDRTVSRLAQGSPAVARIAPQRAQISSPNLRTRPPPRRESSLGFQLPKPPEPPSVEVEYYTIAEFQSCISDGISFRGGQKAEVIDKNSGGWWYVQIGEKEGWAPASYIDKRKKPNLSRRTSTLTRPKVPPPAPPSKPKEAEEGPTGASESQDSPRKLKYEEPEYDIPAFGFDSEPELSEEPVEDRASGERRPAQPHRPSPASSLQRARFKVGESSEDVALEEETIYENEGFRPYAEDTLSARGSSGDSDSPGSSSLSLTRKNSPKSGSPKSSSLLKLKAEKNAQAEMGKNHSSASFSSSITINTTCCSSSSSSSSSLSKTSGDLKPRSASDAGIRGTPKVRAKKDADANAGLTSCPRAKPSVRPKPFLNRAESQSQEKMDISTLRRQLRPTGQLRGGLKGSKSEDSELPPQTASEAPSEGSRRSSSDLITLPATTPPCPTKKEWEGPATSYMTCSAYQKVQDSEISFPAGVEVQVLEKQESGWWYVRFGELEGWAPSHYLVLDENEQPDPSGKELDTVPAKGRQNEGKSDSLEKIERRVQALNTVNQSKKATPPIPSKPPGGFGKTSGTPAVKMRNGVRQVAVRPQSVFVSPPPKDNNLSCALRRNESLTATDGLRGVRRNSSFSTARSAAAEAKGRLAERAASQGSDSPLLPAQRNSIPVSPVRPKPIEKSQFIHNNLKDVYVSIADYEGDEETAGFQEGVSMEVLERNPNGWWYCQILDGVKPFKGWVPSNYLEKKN


What was measured:
[1] = molecular target: T1, TKS5-EGFP; test: co-IP
[2] = molecular target: GST-SH3 (SH3 domain of cortactin fused to GST) (UniProt Q14247); test: pull-down
[3] = molecular target: T2, TKS5-EGFP, Q5TCZ1; test: co-IP; conditions: remark: other sources report otherwise

| binding [1] | binding [2] | binding [3] | Binder |
| --- | --- | --- | --- |
| no binding | binds |  | HCLS1-binding protein 3 (HS1BP3), endogenous in MKN-74 cells (protein, UniProt Q53T59 1-392) MQSPAVLVTSRRLQNAHTGLDLTVPQHQEVRGKMMSGHVEYQILVVTRLAAFKSAKHRPEDVVQFLVSKKYSEIEEFYQKLSSRYAAASLPPLPRKVLFVGESDIRERRAVFNEILRCVSKDAELAGSPELLEFLGTRSPGAAGLTSRDSSVLDGTDSQTGNDEEAFDFFEEQDQVAEEGPPVQSLKGEDAEESLEEEEALDPLGIMRSKKPKKHPKVAVKAKPSPRLTIFDEEVDPDEGLFGPGRKLSPQDPSEDVSSVDPLKLFDDPDLGGAIPLGDSLLLPAACESGGPTPSLSHRDASKELFRVEEDLDQILNLGAEPKPKPQLKPKPPVAAKPVIPRKPAVPPKAGPAEAVAGQQKPQEQIQAMDEMDILQYIQDHDTPAQAAPSLF |
|  | binds |  | EGFP-HS1BP3 WT (protein, UniProt Q53T59 1-392) MQSPAVLVTSRRLQNAHTGLDLTVPQHQEVRGKMMSGHVEYQILVVTRLAAFKSAKHRPEDVVQFLVSKKYSEIEEFYQKLSSRYAAASLPPLPRKVLFVGESDIRERRAVFNEILRCVSKDAELAGSPELLEFLGTRSPGAAGLTSRDSSVLDGTDSQTGNDEEAFDFFEEQDQVAEEGPPVQSLKGEDAEESLEEEEALDPLGIMRSKKPKKHPKVAVKAKPSPRLTIFDEEVDPDEGLFGPGRKLSPQDPSEDVSSVDPLKLFDDPDLGGAIPLGDSLLLPAACESGGPTPSLSHRDASKELFRVEEDLDQILNLGAEPKPKPQLKPKPPVAAKPVIPRKPAVPPKAGPAEAVAGQQKPQEQIQAMDEMDILQYIQDHDTPAQAAPSLF |
|  |  | binds | Src substrate cortactin, endogenous in MKN-74 cells, Q14247 1-550 (protein) MWKASAGHAVSIAQDDAGADDWETDPDFVNDVSEKEQRWGAKTVQGSGHQEHINIHKLRENVFQEHQTLKEKELETGPKASHGYGGKFGVEQDRMDKSAVGHEYQSKLSKHCSQVDSVRGFGGKFGVQMDRVDQSAVGFEYQGKTEKHASQKDYSSGFGGKYGVQADRVDKSAVGFDYQGKTEKHESQRDYSKGFGGKYGIDKDKVDKSAVGFEYQGKTEKHESQKDYVKGFGGKFGVQTDRQDKCALGWDHQEKLQLHESQKDYKTGFGGKFGVQSERQDSAAVGFDYKEKLAKHESQQDYSKGFGGKYGVQKDRMDKNASTFEDVTQVSSAYQKTVPVEAVTSKTSNIRANFENLAKEKEQEDRRKAEAERAQRMAKERQEQEEARRKLEEQARAKTQTPPVSPAPQPTEERLPSSPVYEDAASFKAELSYRGPVSGTEPEPVYSMEAADYREASSQQGLAYATEAVYESAEAPGHYPAEDSTYDEYENDLGITAVALYDYQAAGDDEISFDPDDIITNIEMIDDGWWRGVCKGRYGLFPANYVELRQ |
